According to patent publication EP4755915A1:
No constants are given. Whether binding was seen depends on the method and setting. Some entries that bind do so weakly or less than the wild type.

Amino acid sequences for entries named in this document (tags omitted). A change or cut given only in a name is not applied to a line headed by its entry.
UniProt P02708: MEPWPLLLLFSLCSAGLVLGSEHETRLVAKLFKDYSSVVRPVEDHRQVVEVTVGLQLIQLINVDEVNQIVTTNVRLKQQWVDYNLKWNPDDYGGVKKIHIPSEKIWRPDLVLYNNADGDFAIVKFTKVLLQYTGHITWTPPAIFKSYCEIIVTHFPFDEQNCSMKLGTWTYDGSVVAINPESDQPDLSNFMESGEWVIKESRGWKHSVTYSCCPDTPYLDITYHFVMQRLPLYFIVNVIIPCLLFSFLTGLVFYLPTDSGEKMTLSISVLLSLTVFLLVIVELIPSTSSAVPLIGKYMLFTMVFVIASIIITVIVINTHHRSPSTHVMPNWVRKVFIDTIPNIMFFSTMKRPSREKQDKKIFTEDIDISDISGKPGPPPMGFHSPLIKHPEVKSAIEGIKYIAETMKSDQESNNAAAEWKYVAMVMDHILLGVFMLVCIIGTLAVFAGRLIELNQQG
UniProt P11230: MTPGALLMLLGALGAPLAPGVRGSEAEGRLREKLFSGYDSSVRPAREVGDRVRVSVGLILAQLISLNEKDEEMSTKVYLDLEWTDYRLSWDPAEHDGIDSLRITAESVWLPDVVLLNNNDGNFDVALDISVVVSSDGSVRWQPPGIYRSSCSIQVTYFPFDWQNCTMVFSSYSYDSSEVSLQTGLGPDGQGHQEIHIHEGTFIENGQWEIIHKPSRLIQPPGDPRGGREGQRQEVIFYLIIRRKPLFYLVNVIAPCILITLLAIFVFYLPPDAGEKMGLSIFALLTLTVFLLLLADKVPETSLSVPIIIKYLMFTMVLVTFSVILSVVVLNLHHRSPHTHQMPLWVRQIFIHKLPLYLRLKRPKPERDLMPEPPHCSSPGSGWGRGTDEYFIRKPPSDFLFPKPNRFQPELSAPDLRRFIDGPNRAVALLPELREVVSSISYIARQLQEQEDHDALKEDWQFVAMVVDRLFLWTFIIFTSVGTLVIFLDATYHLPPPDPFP
UniProt Q07001: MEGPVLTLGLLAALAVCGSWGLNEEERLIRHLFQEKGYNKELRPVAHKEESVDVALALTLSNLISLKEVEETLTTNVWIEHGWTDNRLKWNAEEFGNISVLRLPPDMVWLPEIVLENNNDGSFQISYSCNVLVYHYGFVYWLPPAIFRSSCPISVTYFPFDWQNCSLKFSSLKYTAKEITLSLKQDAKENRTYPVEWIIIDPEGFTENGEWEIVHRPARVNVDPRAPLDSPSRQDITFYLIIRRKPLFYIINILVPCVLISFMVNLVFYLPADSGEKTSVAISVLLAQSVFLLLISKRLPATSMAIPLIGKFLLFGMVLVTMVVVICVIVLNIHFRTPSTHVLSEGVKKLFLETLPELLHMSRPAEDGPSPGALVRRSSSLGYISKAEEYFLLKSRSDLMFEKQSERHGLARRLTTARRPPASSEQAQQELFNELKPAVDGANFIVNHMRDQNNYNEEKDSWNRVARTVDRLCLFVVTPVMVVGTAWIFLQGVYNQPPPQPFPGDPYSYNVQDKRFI
UniProt P07510: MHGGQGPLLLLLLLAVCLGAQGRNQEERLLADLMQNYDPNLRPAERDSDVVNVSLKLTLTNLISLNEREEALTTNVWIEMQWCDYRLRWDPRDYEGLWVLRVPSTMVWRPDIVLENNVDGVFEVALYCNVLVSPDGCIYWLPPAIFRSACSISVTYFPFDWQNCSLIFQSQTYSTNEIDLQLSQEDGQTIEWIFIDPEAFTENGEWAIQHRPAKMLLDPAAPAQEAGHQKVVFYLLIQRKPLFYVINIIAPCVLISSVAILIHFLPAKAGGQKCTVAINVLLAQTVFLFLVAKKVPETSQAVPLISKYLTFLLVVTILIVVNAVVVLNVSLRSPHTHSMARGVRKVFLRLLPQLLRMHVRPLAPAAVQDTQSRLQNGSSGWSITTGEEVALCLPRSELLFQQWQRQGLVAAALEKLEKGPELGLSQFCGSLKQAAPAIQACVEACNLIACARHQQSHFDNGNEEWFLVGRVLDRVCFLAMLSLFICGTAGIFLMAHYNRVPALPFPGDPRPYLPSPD

Biological target: fetal acetylcholine receptor (AChR) on the cell membrane of TE671 cells (human) (UniProt P02708+P11230+Q07001+P07510)
Assay: flow cytometry competition on TE671 cells expressing fetal AChR; competitor biotinylated mAb637 at 8 µg/ml, detected with labelled streptavidin

binding: binds
B1: mAb637 C (antibody, human IgG2, kappa)
heavy: NFELTQPHSVSESPGKTVTISCTRSSGSIASNYVQWYQQRPGSSPTTVIYEDNQRPSGVPDRFSGSIDSSSNSASLTISGLKTEDEADYYCQSYDSNSGGRVFGGGTKLTVLASTKGPSVFPLAPCSRSTSESTAALGCLVKDYFPEPVTVSWNSGALTSGVHTFPAVLQSSGLYSLSSVVTVPSSNFGTQTYTCNVDHKPSNTKVDKTVERKCCVECPPCPAPPVAGPSVFLFPPKPKDTLMISRTPEVTCVVVDVSQEDPEVQFNWYVDGVEVHNAKTKPREEQFNSTYRVVSVLTVLHQDWLNGKEYKCKVSNKGLPSSIEKTISKAKGQPREPQVYTLPPSQEEMTKNQVSLTCLVKGFYPSDIAVEWESNGQPENYKTTPPVLDSDGSFFLYSRLTVDKSRWQEGNVFSCSVMHEALHNHYTQKSLSLSLGK
light: QVQLLESGGGLVKPGGSLRLSCAASGFKSTDYYMAWVRQAPGRGLEWVSFISGRVFTNYTASVRGRFTVFREDDNTSVYLQMSRLRVEDTAVYYCARLRGIFRGPLKPLEYYFDLWGRGTLVTVSSRTVAAPSVFIFPPSDEQLKSGTASVVCLLNNFYPREAKVQWKVDNALQSGNSQESVTEQDSKDSTYSLSSTLTLSKADYEKHKVYACEVTHQGLSSPVTKSFNRGEC
